Measured data: PubChem BioAssay AID652272 (Drosophila RNAi Screening Center, 2013)

Test: 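Genes whose knock-down decreases or increases Hedgehog reporter output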 (primary screen)
Cell system: Drosophila clone 8 (Cl8) cells
Reagent: long dsRNA against Drosophila genes
Measured: 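Plate reader light from a firefly reporter under a ptc promoter fragment that responds to Hedgehog, with Renilla light as transfection reference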
Reading the numbers: firefly Hh reporter signal: higher = more ptc reporter light; Renilla reference signal: higher = more Renilla control light
Rule for the call: 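Hit when the z-score averaged over two replicates is under -2 or over +3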
Meaning of the calls: active = hit: reporter lowered or raised; inactive = not a hit
The deposit covers about 21,000 reagents; this is a random part of those with a known target gene and a result. Of all reagents, 503 (2.4%) were called active. 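Raw plate light values, not normalised; calls rest on replicate z-scores that were not deposited; hits include reporter decreases as well as increases.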 A number with no mark means an inactive call. The numbers tell different reagents against one gene apart. A plus sign joins genes that one reagent is predicted to hit. The record does not give: the amount of reagent, the time to read-out.

| Target gene | reagent | firefly Hh reporter signal, replicate 1 | firefly Hh reporter signal, replicate 2 | firefly Hh reporter signal, replicate 3 | Renilla reference signal, replicate 1 | Renilla reference signal, replicate 2 |
| --- | --- | --- | --- | --- | --- | --- |
| CG42512 + CG32573 | 1 | 94760 | 2.03e5 | – | 3706 | 8709 |
| CG42512 + CG32573 | 2 | 1.87e5 | 1.51e5 | – | 3040 | 4002 |
| CG1304 | 1 | 1.25e5 | 2.56e5 | – | 4740 | 10832 |
| ZnT41F (Zinc transporter 41F) | 1 | 1.19e5 | 72880 | – | 4512 | 2756 |
| CG12715 | 1 | 58856 | 2.67e5 | – | 2133 | 9289 |
| CG9135 | 1 | 73844 | 75075 | – | 3634 | 3498 |
| Pgant7 (Polypeptide N-Acetylgalactosaminyltransferase 7) | 1 | 1.03e5 | 62978 | – | 2464 | 1479 |
| vvl (ventral veins lacking) | 1 | 54880 | 53826 | – | 5819 | 3547 |
| Chsy (Chondroitin sulfate synthase) | 1 | 44183 | 1.60e5 | – | 1349 | 6886 |
| Chsy (Chondroitin sulfate synthase) | 2 | 93493 | 2.60e5 | – | 2963 | 11441 |
| Cand1 (Cullin-associated and neddylation-dissociated 1) | 1 | 66690 | 48823 | – | 2613 | 2027 |
| CG13614 | 1 | 4.81e5 | 72483 | – | 23624 | 2369 |
| eIF1A (eukaryotic translation initiation factor 1A) | 1 | 4.10e5 | 65649 | – | 27588 | 2534 |
| sncRNA:430e + His2A:CG33859 + His2A:CG33817 + 37 more | 1 | 44578 | 55801 | – | 2804 | 2600 |
| CG12984 | 1 | 1.03e5 | 1.20e5 | – | 3544 | 3185 |
| CG14740 | 1 | 96379 | 1.01e5 | – | 3749 | 3904 |
| CG15233 | 1 | 1.02e5 | 66101 | – | 4083 | 2661 |
| mod (modulo) | 1 | 72887 | 73539 | – | 2137 | 2576 |
| Brd8 (Bromodomain containing 8) | 1 | 88288 | 1.09e5 | – | 2123 | 3533 |
| Buffy | 1 | 1.03e5 | 51712 | – | 2160 | 3808 |
| Acsx2 (Acyl-CoA synthetase X2) | 1 | 6.27e5 | 81968 | – | 30122 | 2295 |
| tbc (trabuco) | 1 | 62146 | 96289 | – | 1272 | 3980 |
| ICA69 (Islet cell autoantigen 69 kDa) | 1 | 1.14e5 | 69804 | – | 4379 | 2887 |
| Mocs2A + Mocs2B | 1 | 4.67e5 | 93784 | – | 3931 | 3931 |
| Mocs2A + Mocs2B | 2 | 5.91e5 | 98307 | – | 30989 | 2896 |
| Ttc19 (Tetratricopeptide repeat domain 19) | 1 | 61190 | 35397 | – | 1824 | 3794 |
| Rab10 | 1 | 67959 | 1.83e5 | – | 1498 | 8720 |
| CG7465 | 1 | 78872 | 57208 | – | 6154 | 4596 |
| Ntan1 (N-terminal amidohydrolase 1) | 1 | 1.12e5 | 70675 | – | 3049 | 4886 |
| CG43057 | 1 | 5.00e5 | 2.48e5 | – | 27572 | 10552 |
| Sema1b (Semaphorin 1b) | 1 | 1.22e5 | 96284 | – | 6147 | 4304 |
| amon (amontillado) | 1 | 49084 | 2.03e5 | – | 11561 | 4188 |
| amon (amontillado) | 2 | 1.03e5 | 4.76e5 | 1.25e5 | 3052 | 3474 |
| Rrp47 (Ribosomal RNA processing 47) | 1 | 1.04e5 | 1.81e5 | – | 2642 | 8608 |
| CG3335 | 1 | 55652 | 48225 | 42061 | 4256 | 3388 |
| Ttd14 (TRPL translocation defect 14) | 1 | 1.53e5 | 1.16e5 | – | 5570 | 4151 |
| Ttd14 (TRPL translocation defect 14) | 2 | 1.21e5 | 81562 | – | 2949 | 4806 |
| CG12576 | 1 | 55249 | 1.38e5 | – | 1258 | 6006 |
| CG14142 | 1 | 48208 | 44161 | 68998 | 4368 | 5575 |
| f (forked) | 1 | 5.05e5 | 69252 | – | 2930 | 2930 |
| f (forked) | 2 | 79651 | 1.78e5 | – | 2544 | 7195 |
| f (forked) | 3 | 84757 | 1.61e5 | – | 3024 | 7878 |
| byn (brachyenteron) | 1 | 49721 | 64081 | 1.05e5 | 6146 | 7634 |
| CG7120 | 1 | 1.04e5 | 1.64e5 | – | 3133 | 7883 |
| CG7120 | 2 | 51034 | 56852 | – | 5846 | 4738 |
| CG5543 | 1 | 77976 | 67852 | – | 3461 | 3269 |
| EMC8-9 (ER membrane protein complex subunit 8/9) | 1 | 80070 | 37448 | – | 2691 | 1203 |
| CG34125 | 1 | 3.92e5 | 1.40e5 | – | 19432 | 6691 |
| EAChm (Enhancer of Acetyltransferase Chameau) | 1 | 89317 | – | – | 3035 | 2679 |
| djl (don juan like) | 1 | 81016 | 1.03e5 | – | 3129 | 3155 |
| IleRS-m (Isoleucyl-tRNA synthetase, mitochondrial) | 1 | 1.60e5 | – | – | 6520 | 4628 |
| fog (folded gastrulation) | 1 | 73516 | 61616 | – | 1431 | 1728 |
| CG15888 | 1 | 94343 | 55632 | – | 3568 | 1683 |
| CG9899 | 1 | 1.47e5 | 68365 | – | 3719 | 6455 |
| CG6996 | 1 | 1.05e5 | 1.37e5 | – | 2338 | 3989 |
| SMC6 (Structural maintenance of chromosomes 6) | 1 | 7.35e5 | 1.62e5 | – | 37778 | 4491 |
| CG14540 | 1 | 3.39e5 | 64058 | – | 21610 | 5973 |
| Rh3 (Rhodopsin 3) | 1 | 1.11e5 | 83779 | – | 5314 | 3573 |
| tay (tay bridge) | 1 | 98397 | 61590 | – | 2914 | 1418 |
| CG12773 | 1 | 78774 | 82140 | – | 1033 | 2493 |
| Cpr30B (Cuticular protein 30B) | 1 | 1.21e5 | 52886 | – | 3421 | 5244 |
| CG5645 | 1 | 1.31e5 | 80259 | – | 4978 | 2964 |
| Prosbeta4R1 (Proteasome beta4 subunit-related 1) | 1 | 90760 | 57008 | – | 2567 | 1500 |
| CG11060 | 1 | 86548 | 86163 | – | 3460 | 3577 |
| sd (scalloped) | 1 | 81200 | 1.66e5 | – | 3011 | 8409 |
| CG13692 | 1 | 1.21e5 | 99651 | – | 2821 | 2636 |
| Ubc4 (Ubiquitin conjugating enzyme 4) | 1 | 1.14e5 | 96672 | – | 4684 | 4154 |
| CG5172 | 1 | 1.15e5 | 2.83e5 | – | 2566 | 12119 |
| dpn (deadpan) | 1 | 75818 | 29699 | – | 2020 | 3237 |
| CG34005 | 1 | 1.05e5 | 1.92e5 | – | 3201 | 7872 |
| Iml1 (Increased minichromosome loss 1) | 1 | 87339 | 78388 | – | 4043 | 3587 |
| ppk31 (pickpocket 31) | 1 | 1955 | 2.29e5 | – | 538 | 4807 |
| dgrn (degringolade) | 1 | 91461 | 77381 | – | 3914 | 2896 |
